Reference: PubChem BioAssay AID1439 (NMMLSC, 2008)
The whole screen tested about 220,000 compounds, of which about 770 (0.35%) were called active. This list was built around the results that the source calls inconclusive (neither active nor inactive); the mix of calls is not that of the screen. Cut-off read from the data, not from the text of the source: active = binding response below about 49% or above about 150%; inconclusive = no clear call, values can overlap the other calls; inactive = in between.

By UniProt entry, the sequences of proteins in these tests, tags left out.
UniProt P09471, whole entry, looked up: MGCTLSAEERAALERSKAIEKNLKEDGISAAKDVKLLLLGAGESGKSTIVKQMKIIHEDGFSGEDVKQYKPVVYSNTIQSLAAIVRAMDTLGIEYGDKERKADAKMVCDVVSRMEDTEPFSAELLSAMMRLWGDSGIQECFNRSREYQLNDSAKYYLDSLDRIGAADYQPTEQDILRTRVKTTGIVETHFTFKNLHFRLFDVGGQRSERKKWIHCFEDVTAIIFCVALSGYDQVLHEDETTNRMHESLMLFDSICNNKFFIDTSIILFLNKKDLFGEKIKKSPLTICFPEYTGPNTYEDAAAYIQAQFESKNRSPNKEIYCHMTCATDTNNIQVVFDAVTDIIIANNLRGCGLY

Molecular target: Guanine nucleotide-binding protein G(o) subunit alpha (Homo sapiens) (UniProt P09471)
Assay: RGS7-Galphao binding modulators, primary screen, biochemical, multiplexed bead flow cytometry (AID 1439);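 note: fluorescent Galphao held in activated GDP-AlF4 state binding bead-coupled RGS7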
Details: at 10 µM, actives lie on both sides

Row | Compound | binding response (% of control)
1 | CCOC(=O)c1cc(-c2ccco2)nn1-c1ccc(C)cc1 | inconclusive: 126%
2 | CC1=C(C)C(OCCCl)N(c2cc(O)c(Cl)cc2F)C1=O (configuration not stated) | inconclusive: 115%
3 | Cc1cccc(Oc2sc(C(=O)c3ccccc3)c(N)c2C#N)c1 | inactive: 95.9%
4 | Nc1c(C(=O)c2ccco2)oc2ccccc12 | inconclusive: 96.3%
5 | CCOC(=O)c1cc2c(n(-c3ccccc3)c1=O)CC(C)(C)CC2=O | inactive: 94.9%
6 | CSc1nc2sc3c(c2c(=O)[nH]1)CCC3 | inactive: 104%
7 | Cc1cccc(NC(=O)c2ccccc2-c2ccccc2)c1 | inconclusive: 78.1%
8 | O=C(O)C(Cc1c[nH]c2ccccc12)N1C(=O)C2C3c4ccccc4C(c4ccccc43)C2C1=O (configuration not stated) | inactive: 108%
9 | CCC(C)NCCCOc1ccc(C)cc1OC (configuration not stated) | inconclusive: 119%
10 | Cc1ccc(SCC(=O)Nc2c(Br)cnn2C)cc1 | inconclusive: 98.5%
11 | COc1ccc(OCC(=O)OC2CCCN(C)C2)cc1 (configuration not stated) | inconclusive: 72.2%
12 | Cc1ccc(SC[C@H](Cc2ccccc2)N2CCN(C)CCC2=O)cc1 | inconclusive: 105%
13 | O=C(CN1CCc2ccccc2C1)Nc1ccc(Br)cc1 | inactive: 111%
14 | CNc1ncc(-c2nnnn2-c2ccccc2)c(-c2ccccc2)n1 | inconclusive: 57.8%
15 | COc1cc(CC2COC(=O)C2(O)Cc2ccc(O)c(OC)c2)ccc1O (configuration not stated) | inconclusive: 118%
16 | CNC(=O)c1oc(-c2ccccc2)nc1C | inactive: 104%
17 | CCOC(=O)Cn1c(C)[n+](CC(=O)c2ccccc2)c2ccccc21 | inconclusive: 123%
18 | Cc1onc(-c2c(F)cccc2Cl)c1C(=O)N=C(N)N1CC(C)OC(C)C1 (configuration not stated) | inconclusive: 80%
19 | COc1ccc(-c2ncncc2-c2ccc(Cl)cc2)c(O)c1 | inconclusive: -31.6%

Row | Compound | binding response (% of control)
20 | COc1ccccc1N(C)S(=O)(=O)c1ccc(C(=O)OCC(=O)NCc2ccco2)cc1 | inactive: 99.8%
21 | O=C(c1ccc(F)cc1F)C1CCN(c2ccc([N+](=O)[O-])cn2)CC1 | inconclusive: 54%
22 | C[C@H](NC(=O)CCCn1nnc2ccccc2c1=O)C(=O)O | inconclusive: 116%
23 | O=C(Nc1nc(-c2cccnc2)cs1)c1cccc([N+](=O)[O-])c1 | inactive: 103%
24 | Cc1oc(-c2ccc(Cl)cc2)cc1C(=O)/C(C#N)=C/Nc1cccc(OC(F)(F)F)c1 | inconclusive: 2.41%
25 | Cc1cc(C)nc(N/N=C/c2cccc([N+](=O)[O-])c2)n1 | inconclusive: 111%
26 | Cc1cc(C)cc(NC(=O)NCC(O)COc2ccc([N+](=O)[O-])cc2)c1 (configuration not stated) | inconclusive: 90%
27 | C=CCNc1ncnc2sc(SC)nc12 | inconclusive: 136%
28 | O=C1CSC(=S)N1/N=C/c1ccc(O)c(O)c1O | inconclusive: 879%
29 | Cc1cc(Nc2ccccc2C(=O)O)n(-c2ccc([N+](=O)[O-])cc2)n1 | inconclusive: 70.9%
30 | COc1ccccc1-n1cnnc1SCC(=O)Nc1cccnc1Cl | inconclusive: 114%
31 | CCc1ccc(-n2c(SCC(=O)N3Cc4ccccc4CC3C(=O)O)nnc2-c2ccncc2)cc1 (configuration not stated) | inconclusive: 88.5%
32 | CCn1c(CC(=O)Nc2ccccc2OC)nnc1SCC(=O)Nc1ccccc1F | inconclusive: 88.7%
33 | Cc1onc(-c2ccccc2Cl)c1C(=O)NC(=S)Nc1ccccc1F | inconclusive: 101%
34 | COc1ccc(OC)c(N/C(=N/C(=S)Nc2ccccc2)Nc2nc(C)cc(C)n2)c1 | inconclusive: 189%
35 | CC(=O)Nc1c(O)nc(SC/C=C/CSc2nc(O)c(NC(C)=O)c(=O)[nH]2)[nH]c1=O | inconclusive: 95.8%
36 | CCOc1ccc(NC(=O)COC(=O)c2ncc(Cl)c(Cl)c2Cl)cc1 | inactive: 100%
37 | Cc1cc(C)nc(N2CCN(C(=O)CCC(=O)Nc3nnc(CC(C)C)s3)CC2)n1 | inconclusive: 113%
38 | CCCN1CCN(CCCNC(=O)c2cc3c(=O)[nH]c4ccc(C)cc4c3s2)CC1 | inconclusive: 75.7%

Row | Compound | binding response (% of control)
39 | COc1nc(Nc2nc3ccccc3c(=O)[nH]2)nc2ccc(C)cc12 | inconclusive: 32.3%
40 | O=C(CCN1C(=O)c2ccccc2C1=O)C1=NN[C@@H]2C(=O)N(c3ccc4c(c3)OCO4)C(=O)[C@H]12 | inconclusive: 102%
41 | O=C(NC(=S)Nc1ccc(CN2CCOCC2)cc1)c1ccc(-c2ccc(Cl)cc2)o1 | inconclusive: -191%
42 | C=CCNC(=S)Nc1ccc2cn[nH]c2c1 | inconclusive: 95%
43 | CCOC(=O)c1cnc2c(c(C)nn2C)c1Oc1cc(Cl)cc(Cl)c1 | inconclusive: 149%
44 | O=C(Cc1ccc(Cl)cc1)Oc1cccc2cccnc12 | inactive: 82.3%
45 | Cc1ccc(N/C=C/C(=O)c2ccco2)c(O)c1 | inconclusive: 104%
46 | COC(=O)c1ccc(NC(=O)C2CCN(C(=O)c3cc(OC)c(OC)c(OC)c3)CC2)cc1 | inactive: 137%
47 | CC1=NNC(=O)C1CC(=O)N/N=C/c1ccncc1 (configuration not stated) | inconclusive: 111%
48 | CC1=CC(=Nc2c(C)n(C)n(-c3ccccc3)c2=O)C=CC1=O | inconclusive: 89.5%
49 | CCC(C)(C)C1CCc2nc3ccccc3c(C(=O)OC(C)C(=O)Nc3c(C)n(C)n(-c4ccccc4)c3=O)c2C1 (configuration not stated) | inactive: 108%
50 | COC(=O)Nc1cc([N+](=O)[O-])ccc1OC | inactive: 112%
51 | COc1ccc(C(=O)Nc2ccc(CN3CCS(=O)(=O)CC3)cc2)cc1 | inconclusive: 94.1%
52 | CC(C)(C)C(=O)NNC(=O)c1ccc(Oc2cc(Cl)cc(Cl)c2)o1 | inconclusive: 103%
53 | CC(=O)c1ccc(NC(=S)NNC(=O)c2ccncc2)cc1 | inactive: 102%
54 | O=C(O)CCCn1cc(NC(=O)c2ccco2)cn1 | inconclusive: 92.4%
55 | CCCCOC(=O)c1ccc(NC(=S)N2CCN(c3ncc4c(=O)c(C(=O)O)cn(CC)c4n3)CC2)cc1 | inconclusive: 88.9%
56 | CN1CCC2(CC1)N=C(c1ccc(F)cc1)C(=S)N2C(=O)c1ccc(C(C)(C)C)cc1 | inactive: 102%
57 | COc1ccccc1NC(=O)CSc1nnc(C2CCCCC2)n1-c1ccccc1 | inconclusive: 84.1%

Random excerpt: 4 compounds from above
Row | Compound | binding response (% of control)
6 | CSc1nc2sc3c(c2c(=O)[nH]1)CCC3 | inactive: 104%
55 | CCCCOC(=O)c1ccc(NC(=S)N2CCN(c3ncc4c(=O)c(C(=O)O)cn(CC)c4n3)CC2)cc1 | inconclusive: 88.9%
21 | O=C(c1ccc(F)cc1F)C1CCN(c2ccc([N+](=O)[O-])cn2)CC1 | inconclusive: 54%
1 | CCOC(=O)c1cc(-c2ccco2)nn1-c1ccc(C)cc1 | inconclusive: 126%
